Chains of the proteins cited; added tags and fusions are not shown. Residues count along the entry.
UniProt P02545, residues 1-646: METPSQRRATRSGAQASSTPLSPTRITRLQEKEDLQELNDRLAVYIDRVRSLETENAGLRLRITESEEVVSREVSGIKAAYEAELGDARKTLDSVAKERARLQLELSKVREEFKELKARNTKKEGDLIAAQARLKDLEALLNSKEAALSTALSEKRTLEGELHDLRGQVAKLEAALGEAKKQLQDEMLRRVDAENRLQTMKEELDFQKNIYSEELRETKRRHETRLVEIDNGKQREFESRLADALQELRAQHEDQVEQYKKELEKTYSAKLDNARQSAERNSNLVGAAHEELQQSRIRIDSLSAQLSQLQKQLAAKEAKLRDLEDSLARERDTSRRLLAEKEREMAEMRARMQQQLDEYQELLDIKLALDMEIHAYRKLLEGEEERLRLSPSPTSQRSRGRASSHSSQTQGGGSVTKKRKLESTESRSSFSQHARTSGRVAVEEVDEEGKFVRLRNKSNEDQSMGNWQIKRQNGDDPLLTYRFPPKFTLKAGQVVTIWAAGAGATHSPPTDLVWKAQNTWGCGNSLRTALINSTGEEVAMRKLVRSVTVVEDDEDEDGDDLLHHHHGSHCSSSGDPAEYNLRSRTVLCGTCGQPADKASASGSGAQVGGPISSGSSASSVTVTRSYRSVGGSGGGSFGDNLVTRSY
UniProt O95347: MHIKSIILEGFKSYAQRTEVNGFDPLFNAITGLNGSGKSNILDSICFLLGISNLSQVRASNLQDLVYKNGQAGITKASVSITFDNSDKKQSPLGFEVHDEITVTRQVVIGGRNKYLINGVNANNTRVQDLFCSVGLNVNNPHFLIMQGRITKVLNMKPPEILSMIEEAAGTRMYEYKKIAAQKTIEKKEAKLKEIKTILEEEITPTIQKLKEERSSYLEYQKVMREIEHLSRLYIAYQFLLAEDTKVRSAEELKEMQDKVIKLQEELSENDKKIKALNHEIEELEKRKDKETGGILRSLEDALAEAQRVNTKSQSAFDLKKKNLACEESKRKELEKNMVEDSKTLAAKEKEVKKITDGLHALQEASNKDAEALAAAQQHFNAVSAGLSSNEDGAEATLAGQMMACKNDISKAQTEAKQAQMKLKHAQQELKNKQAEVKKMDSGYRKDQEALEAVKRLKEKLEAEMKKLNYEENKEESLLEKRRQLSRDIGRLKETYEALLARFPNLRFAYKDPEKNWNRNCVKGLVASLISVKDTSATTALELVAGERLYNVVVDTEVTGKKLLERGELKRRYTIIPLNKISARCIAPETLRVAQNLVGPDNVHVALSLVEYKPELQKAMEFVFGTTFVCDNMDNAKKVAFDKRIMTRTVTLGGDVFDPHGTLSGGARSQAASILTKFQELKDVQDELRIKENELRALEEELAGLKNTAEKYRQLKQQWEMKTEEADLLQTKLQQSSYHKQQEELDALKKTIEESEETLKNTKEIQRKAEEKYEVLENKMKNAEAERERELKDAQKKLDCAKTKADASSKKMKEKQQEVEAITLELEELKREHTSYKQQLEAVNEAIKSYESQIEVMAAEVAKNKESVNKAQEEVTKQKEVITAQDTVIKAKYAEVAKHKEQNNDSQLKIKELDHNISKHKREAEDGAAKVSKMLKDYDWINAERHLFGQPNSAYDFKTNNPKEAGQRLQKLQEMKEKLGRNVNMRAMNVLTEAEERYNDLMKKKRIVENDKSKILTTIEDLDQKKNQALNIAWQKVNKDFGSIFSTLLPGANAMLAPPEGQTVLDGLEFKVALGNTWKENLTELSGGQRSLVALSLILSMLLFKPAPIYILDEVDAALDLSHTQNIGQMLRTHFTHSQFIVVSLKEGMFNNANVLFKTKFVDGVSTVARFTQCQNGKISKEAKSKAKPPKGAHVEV
UniProt O94901: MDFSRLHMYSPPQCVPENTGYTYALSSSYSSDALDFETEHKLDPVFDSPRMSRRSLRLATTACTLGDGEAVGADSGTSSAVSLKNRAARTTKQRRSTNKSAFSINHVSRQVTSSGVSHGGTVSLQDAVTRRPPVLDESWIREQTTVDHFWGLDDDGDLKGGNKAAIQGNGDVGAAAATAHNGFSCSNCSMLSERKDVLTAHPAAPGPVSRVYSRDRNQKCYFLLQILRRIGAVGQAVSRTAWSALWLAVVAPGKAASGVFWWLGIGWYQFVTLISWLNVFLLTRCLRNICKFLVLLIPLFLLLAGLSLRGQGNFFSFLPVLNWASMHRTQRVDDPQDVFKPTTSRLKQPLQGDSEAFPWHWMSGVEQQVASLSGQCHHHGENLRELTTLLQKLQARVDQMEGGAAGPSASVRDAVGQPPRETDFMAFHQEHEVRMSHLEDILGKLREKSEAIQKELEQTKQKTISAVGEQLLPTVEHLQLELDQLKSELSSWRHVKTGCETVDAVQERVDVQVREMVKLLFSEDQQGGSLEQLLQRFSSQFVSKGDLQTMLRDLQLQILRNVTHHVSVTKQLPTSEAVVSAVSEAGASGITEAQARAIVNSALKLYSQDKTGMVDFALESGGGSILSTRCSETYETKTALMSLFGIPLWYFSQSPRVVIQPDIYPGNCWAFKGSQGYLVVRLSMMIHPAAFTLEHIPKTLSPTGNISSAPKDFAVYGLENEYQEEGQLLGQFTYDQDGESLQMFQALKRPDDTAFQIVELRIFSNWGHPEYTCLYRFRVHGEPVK

In article PMC5763115, “Nesprin-2 Interacts with Condensin Component SMC2” (International Journal of Cell Biology, 2017):

Key:
[1] = target: Nesprin-2 giant (human (endogenous in HaCaT)) (UniProt Q8WXH0); experiment: affinity purification with mass spectrometry; immunoprecipitation of endogenous Nesprin-2 from HaCaT cells with mAb K20-478 (and pAbK1); SDS-PAGE, Coomassie bands cut out and identified by mass spectrometry; GFP-specific mAb K3-184-2 as control
[2] = target: T1, GST-Nesprin-2-SMC (human) (UniProt Q8WXH0); experiment: affinity purification with mass spectrometry; GST-Nesprin-2-SMC or GST on Glutathione-Sepharose beads incubated with HaCaT cell lysate; precipitate analysed by mass spectrometry; only the target purified
T1 sequence: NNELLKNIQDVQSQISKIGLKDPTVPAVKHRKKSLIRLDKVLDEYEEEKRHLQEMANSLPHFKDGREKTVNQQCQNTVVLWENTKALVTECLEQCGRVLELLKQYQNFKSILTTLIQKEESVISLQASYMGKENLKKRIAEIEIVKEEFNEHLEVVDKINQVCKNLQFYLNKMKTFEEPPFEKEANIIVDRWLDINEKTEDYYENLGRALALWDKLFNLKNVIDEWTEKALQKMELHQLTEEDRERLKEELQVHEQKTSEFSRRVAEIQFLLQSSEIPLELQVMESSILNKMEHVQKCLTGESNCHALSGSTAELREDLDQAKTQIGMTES

Substance | binding [1] | binding [2]
Lamin A/C (from UniProt P02545 1-646) | binds | 
Nesprin-2 giant (from UniProt Q8WXH0-1 1-6885) |  | binds
SMC2 (from UniProt O95347 1-1197) | binds | 
SUN1 (from UniProt O94901 1-785) | binds | 

These are yes or no findings as the source states them, for the method shown. In cells and extracts the contact can be indirect. A yes stands for co-enrichment or nearness to the bait. Other partners may have been found. For some of these results: Where a sequence is shown, tags or fusion partners need not be part of it.
